These results are taken from the supplement of paper PMC4840960.

Structures are written as SMILES. ± gives the standard deviation of the averaged measurements. The list shows a part of the results. Plates or batches differ in their baseline, so values are only roughly comparable.

This assay concerns E18 rat cortical neuron-glia co-culture. The assay is described as follows: total nuclei (DAPI) / Olig2+ nuclei (ratio); higher = more depletion of OPC/OL lineage cells. The following applies: treatment time: 8 days (DIV5-DIV13).

Consider `C[C@H]1C[C@@H]2[C@H]([C@@H](O)C[C@@]3(C)[C@H]2CC[C@]3(O)C(=O)CO)[C@@]2(C)C=CC(=O)C=C12` [Methylprednisolone], for which the total nuclei was 4.2 (1 µM) and 5.2 (5 µM).
For `CN[C@H]1CC[C@@H](c2ccc(Cl)c(Cl)c2)c2ccccc21` [Sertraline] the same measures were 4.92 ± 2.1 and 20.9.
For the compound `CN[C@@H]1[C@H](O)[C@H](NC)[C@H]2O[C@@]3(O)C(=O)C[C@@H](C)O[C@H]3O[C@@H]2[C@H]1O` [Spectinomycin], the total nuclei (1 µM) was determined as 2.77 and the total nuclei (5 µM) worked out at 2.8.
The like results for `COc1cc(C(=O)NC2CCCNC2)cc(OC)c1OC` (stereo not given) [Troxipide] were, in that order, 3.7 and 4.2.
For `CN(C)c1nc(N(C)C)nc(N(C)C)n1` [Altretamine] the same measures were 2.61 and 2.8.
